Series [1] is described as follows: general procedure: Fmoc solid-phase peptide synthesis; 2-ClTrt; DIC/HOBt. The conditions noted are these: whole synthesis.
The nature of series [2]: general procedure: Fmoc solid-phase peptide synthesis; Wang; DIC/HOBt. The conditions noted are these: whole synthesis.

[ ]: non-standard residue; d: D form. The star is where a group is joined. Asn(Trt) = N[C@@H](CC(=O)NC(c1ccccc1)(c1ccccc1)c1ccccc1)C(=O)O; Trt = c1ccc(C(c2ccccc2)(c2ccccc2)*)cc1; Fmoc = O=C(OCC1c2ccccc2-c2ccccc21)*; OtBu = CC(C)(C)O*; Acm = CC(=O)NC*

“Fmoc-[Asn(Trt)]D(OtBu)E(OtBu)C(Trt)E(OtBu)-OH” had a crude yield in series [1] of 90%. In series [1] (HPLC), the “crude HPLC purity” value was 95%.
“H-NDECELC(Acm)VNVACTGC(Acm)L-OH (cysteine pairing not given here)”: the crude yield in series [2] stood at 80%. Moreover, the “crude HPLC purity” value in series [2] (HPLC) is given as 50%.
